These are yes or no findings as the source states them, for the method shown. In cells and extracts the contact can be indirect. Some binding calls cover weakened binding; strength is not graded here.
Tests used:
[1] = molecular target: focal adhesion kinase (mouse (endogenous in mouse lung microvascular ECs)) (UniProt P34152); experiment: condition: only ECs pre-treated with 2 µM PF562271 prior to lysis; co-IP; as the co-IP of endogenous proteins from EC lysates, but ECs pre-treated with 2 µM PF562271 (FAK inhibitor) prior to lysis; Western blot with anti-p120RasGAP
[2] = molecular target: neuropilin 2 (mouse (endogenous in mouse lung microvascular ECs)) (UniProt O35375); experiment: condition: only siNRP1 ECs pre-treated with 2 µM PF562271; co-IP; immunoprecipitation of NRP2 from siNRP1 EC lysates after pre-treatment with 2 µM PF562271; Western blot with anti-p120RasGAP
[3] = molecular target: neuropilin 2 (mouse (endogenous in mouse lung microvascular ECs)) (UniProt O35375); experiment: co-IP; endogenous proteins from mouse microvascular EC lysates (25 mM Tris-HCl pH 7.4, 100 mM NaCl, 2 mM MgCl2, 1 mM Na3VO4, 0.5 mM EGTA, 1% Triton X-100, 5% glycerol), 800 µg, Dynabeads Protein G with primary antibody at 4 °C, Western blot; Ctrl or siRNA-depleted ECs; ± 10 min pre-treatment with primaquine (0.3 mM)
[4] = molecular target: focal adhesion kinase (mouse (endogenous in mouse lung microvascular ECs)) (UniProt P34152); experiment: as above

Sequences of proteins named here, by UniProt entry; tags and fusion partners are left off. Residues count along the entry.
UniProt P34152: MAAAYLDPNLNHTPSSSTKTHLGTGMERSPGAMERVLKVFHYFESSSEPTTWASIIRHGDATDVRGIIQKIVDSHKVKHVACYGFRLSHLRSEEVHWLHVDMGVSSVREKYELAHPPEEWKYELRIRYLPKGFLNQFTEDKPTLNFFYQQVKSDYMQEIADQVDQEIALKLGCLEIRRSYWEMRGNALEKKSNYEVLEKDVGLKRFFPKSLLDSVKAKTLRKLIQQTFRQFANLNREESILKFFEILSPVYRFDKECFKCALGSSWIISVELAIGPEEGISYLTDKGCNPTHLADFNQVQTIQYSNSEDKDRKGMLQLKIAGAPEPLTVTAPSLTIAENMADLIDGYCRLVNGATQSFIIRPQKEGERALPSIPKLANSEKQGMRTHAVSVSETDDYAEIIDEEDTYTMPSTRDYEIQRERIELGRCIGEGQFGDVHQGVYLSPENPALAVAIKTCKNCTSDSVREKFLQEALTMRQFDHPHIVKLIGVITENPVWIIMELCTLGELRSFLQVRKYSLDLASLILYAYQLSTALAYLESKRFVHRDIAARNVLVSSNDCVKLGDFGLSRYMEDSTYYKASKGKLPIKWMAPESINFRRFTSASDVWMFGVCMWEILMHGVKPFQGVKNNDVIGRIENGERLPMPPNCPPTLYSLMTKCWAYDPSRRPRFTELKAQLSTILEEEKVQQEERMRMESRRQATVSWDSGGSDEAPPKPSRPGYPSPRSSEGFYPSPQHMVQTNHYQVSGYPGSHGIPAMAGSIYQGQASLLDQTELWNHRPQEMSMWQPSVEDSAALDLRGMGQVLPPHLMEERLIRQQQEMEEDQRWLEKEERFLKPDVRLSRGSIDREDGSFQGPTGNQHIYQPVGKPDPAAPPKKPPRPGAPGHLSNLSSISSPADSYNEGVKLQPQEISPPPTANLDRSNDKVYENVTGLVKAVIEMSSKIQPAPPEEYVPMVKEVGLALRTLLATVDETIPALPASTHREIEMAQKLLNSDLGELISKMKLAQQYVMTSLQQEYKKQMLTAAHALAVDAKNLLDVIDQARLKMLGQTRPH
UniProt O35375, residues 21-931: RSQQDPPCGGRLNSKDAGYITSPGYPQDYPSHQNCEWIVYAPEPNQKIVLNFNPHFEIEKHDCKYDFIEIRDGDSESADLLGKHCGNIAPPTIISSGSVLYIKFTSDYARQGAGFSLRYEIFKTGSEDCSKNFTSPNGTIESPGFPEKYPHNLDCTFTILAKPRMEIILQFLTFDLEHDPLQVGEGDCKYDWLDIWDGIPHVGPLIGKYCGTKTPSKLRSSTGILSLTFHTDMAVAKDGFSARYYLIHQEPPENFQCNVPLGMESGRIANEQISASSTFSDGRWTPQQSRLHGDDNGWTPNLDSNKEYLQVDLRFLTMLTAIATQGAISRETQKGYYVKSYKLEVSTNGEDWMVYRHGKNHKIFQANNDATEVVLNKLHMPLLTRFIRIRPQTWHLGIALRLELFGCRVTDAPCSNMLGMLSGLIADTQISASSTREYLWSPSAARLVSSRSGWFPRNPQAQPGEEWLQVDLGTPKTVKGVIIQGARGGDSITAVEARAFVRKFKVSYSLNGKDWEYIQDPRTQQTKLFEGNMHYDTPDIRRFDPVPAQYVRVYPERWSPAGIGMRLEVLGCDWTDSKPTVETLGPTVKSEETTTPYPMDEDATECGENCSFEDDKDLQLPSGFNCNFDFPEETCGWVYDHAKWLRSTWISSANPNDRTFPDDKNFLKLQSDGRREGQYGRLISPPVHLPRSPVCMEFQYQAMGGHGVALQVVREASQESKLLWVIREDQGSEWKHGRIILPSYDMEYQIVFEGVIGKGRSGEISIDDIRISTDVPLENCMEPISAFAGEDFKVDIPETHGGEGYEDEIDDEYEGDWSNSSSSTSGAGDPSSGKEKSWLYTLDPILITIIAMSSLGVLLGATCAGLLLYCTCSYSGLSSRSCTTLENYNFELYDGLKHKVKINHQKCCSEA

binding [1]: no binding
binding [2]: no binding
binding [3]: binds
binding [4]: binds
B1: p120RasGAP (enzyme, UniProt E9PYG6 1-1038)
chain: MMAAEAGSEEGGPATAGPGGGAATGSSAYSAACRVKLPAALPVAAAPCPGLADADLVAALGGGAASGSGFLGTGPVAGVLGGAALTGSAAAGVAGAAAAGPAGDVAFTKGTLSLPAETLGPGGGFPPLPPPPQLPPLGSGLGTVDEGDSLDGPEYEEEEVAIPLTAPPTNQWYHGKLDRTIAEERLRQAGKSGSYLIRESDRRPGSFVLSFLSQTNVVNHFRIIAMCGDYYIGGRRFSSLSDLIGYYSHVSCLLKGEKLLYPVAPPEPVEDRRRVRAILPYTKVPDTDEISFLKGDMFIVHNELEDGWMWVTNLRTDEQGLIVEDLVEEVGREEDPHEGKIWFHGKISKQEAYNLLMTVGQVCSFLVRPSDNTPGDYSLYFRTNENIQRFKICPTPNNQFMMGGRYYNSIGDIIDHYRKEQIVEGYYLKEPVPMQDQGQVLNDTVDGKEIYNTIRRKTKDAFYKNIVKKGYLLKKGKGKRWKNLYFILEGSDAQLIYFESEKRATKPKGLIDLSVCSVYVVHDSLFGRPNCFQIVVQHFSEEHYIFYFAGETPEQAEDWMKGLQAFCSLRKSSPGTSNKRLRQVSSLVLHIEEAHKLPVKHFTNPYCNIYLNSVQVAKTHAREGQNPVWSEEFVFDDLPPDINRFEITLSNKTKKSKDPDILFMRCQLSRLQKGHATDEWFLLSSHIPLKGIEPGSLRVRARYSMEKIMPEEEYSEFKELILQKELHVVYALSHVCGQDRTLLASILLKIFLHEKLESLLLCTLNDREISMEDEATTLFRATTLASTLMEQYMKATATQFVHHALKDSILKIMESKQSCELSPSKLEKNEDVNTNLAHLLSILSELVEKIFMASEILPPTLRYIYGCLQKSVQHKWPTNNTMRTRVVSGFVFLRLICPAILNPRMFNIISDSPSPIAARTLTLVAKSVQNLANLVEFGAKEPYMEGVNPFIKSNKHRMIMFLDELGNVPELPDTTEHSRTDLSRDLAALHEICVAHSDELRTLSNERGVQQHVLKKLLAITELLQQKQNQYTKTNDIR

— paper PMC11126613
